Measurements from the supplement of paper PMC11348887.
Structures can show the parent of a compound that is named as a salt. Some of the results follow. Small differences around the control level are noise.

The compounds below were run on hPSC-derived cortical neurons (WA09) (assay: total neurite length per nucleus (MAP2) z-score; higher = more neurite growth). Conditions: 5 µM; treatment: days 7-14 after plating, readout day 21.
In the case of `CC(C)N(CCCNC(=O)Nc1ccc(C(C)(C)C)cc1)C[C@H]1O[C@@H](n2ccc3c(N)ncnc32)[C@H](O)[C@@H]1O`, the “total neurite length per nucleus (z-score)” value is reported as 0.924.
For `CC(C)c1cc(-c2n[nH]c(=O)n2-c2ccc3c(ccn3C)c2)c(O)cc1O` [Ganetespib (STA-9090)], the “total neurite length per nucleus (z-score)” value was -2.91.
`CN(C)[C@@H](CCOc1cccc2ccccc12)c1ccccc1` [Dapoxetine HCl] was tested, and the “total neurite length per nucleus (z-score)” value was -1.07.
With `Cc1ccc(Sc2cncc3sc(C(N)=O)cc23)cc1` the “total neurite length per nucleus (z-score)” value was -2.29.
With `NC(N)=NCCCC(N)C(=O)NCC(=O)NC(CC(=O)O)C(=O)O` (stereo not drawn) [RGD (Arg-Gly-Asp) Peptides] the “total neurite length per nucleus (z-score)” value was -0.379.

Each compound was assayed on hPSC-derived cortical neurons (WA09) (assay: nucleus roundness z-score vs screen plate; higher = rounder nuclei (more mature)). Conditions: 5 µM; treatment: days 7-14 after plating, readout day 21.
Work on `CC(C)(C)CC(C)(C)c1ccc(OCCOCC[N+](C)(C)Cc2ccccc2)cc1` [Benzethonium Chloride] yielded a nucleus roundness z-score of -8.14.
For `C=CC(=O)Nc1cccc(Sc2nc(Nc3ccc(N4CCN(C)CC4)cc3)ncc2Cl)c1`, the nucleus roundness z-score was -1.3.
`Cn1cc(-c2ccncc2)c(-c2ccc(OCc3ccc4ccccc4n3)cc2)n1` was tested, and the nucleus roundness z-score was 0.763.
Work on `Fc1ccc([C@@H]2CCNC[C@H]2COc2ccc3c(c2)OCO3)cc1` [Paroxetine HCl] yielded a nucleus roundness z-score of -0.121.
Work on `NS(=O)(=O)c1cc(C(=O)O)c(NCc2ccco2)cc1Cl` [Furosemide] yielded a nucleus roundness z-score of -0.745.
With `CCOCc1nc2c(N)nc3ccccc3c2n1CC(C)(C)O` [Resiquimod] the nucleus roundness z-score was -0.0625.
With `O=C(COc1ccc(Cl)cc1)NC1CCC(NC(=O)COc2ccc(Cl)cc2)CC1` (stereo not drawn) [ISRIB (trans-isomer)] the nucleus roundness z-score was 0.301.
For `Cc1[nH]c2ccccc2c1CCNCc1ccc(/C=C/C(=O)NO)cc1` [Panobinostat (LBH589)], the nucleus roundness z-score was -1.83.
`CC(C(=O)O)c1ccc2c(c1)Cc1cccnc1O2` (stereo unspecified) [Pranoprofen] was tested, and the nucleus roundness z-score was 0.276.
`OC[C@H]1O[C@@H](O[C@@H]2[C@@H](CO)OC(O)(CO)[C@H]2O)[C@H](O)[C@@H](O)[C@H]1O` (mixture of isomers) [Lactulose] showed a nucleus roundness z-score of -0.168.
With `COC(=O)[C@H]1[C@H]2C[C@@H]3c4[nH]c5cc(OC)ccc5c4CCN3C[C@H]2C[C@@H](OC(=O)c2cc(OC)c(OC)c(OC)c2)[C@@H]1OC` [Reserpine] the nucleus roundness z-score was -3.4.
Compound `COc1cc(C2Oc3cc([C@H]4Oc5cc(O)cc(O)c5C(=O)[C@@H]4O)ccc3OC2CO)ccc1O` (stereo partly specified) [Silibinin] has a nucleus roundness z-score of -0.0211.
In the case of `O=C(O)c1cc(/N=N/c2ccc(O)c(C(=O)O)c2)ccc1O` [Olsalazine Sodium], the nucleus roundness z-score is reported as -0.0303.
With `OCCOc1ccc(/C(=C(/CCCl)c2ccccc2)c2ccccc2)cc1` [Ospemifene] the nucleus roundness z-score was 0.884.
`O=NO` [Sodium Nitrite] showed a nucleus roundness z-score of -0.297.
Work on `C[C@H](NC(=O)/C(C#N)=C/c1cccc(Br)n1)c1ccccc1` yielded a nucleus roundness z-score of -1.02.
`CCC(C)(C)c1ccc(CC(C)CN2C[C@@H](C)O[C@@H](C)C2)cc1` (stereo partly specified) [Amorolfine HCl] showed a nucleus roundness z-score of -5.12.
`Cc1cc([C@@H](C)Nc2ccccc2C(=O)O)c2nc(N3CCOCC3)cc(=O)n2c1` was tested, and the nucleus roundness z-score was -0.0792.
`O=C(O)CCc1ccc(NCc2cccc(Oc3ccccc3)c2)cc1` was tested, and the nucleus roundness z-score was 0.394.
`Nc1nc(NCCc2ccc(O)cc2)nc2nc(-c3ccco3)nn12` showed a nucleus roundness z-score of 0.906.
For `O=c1c(-n2ccnn2)c[nH]n1-c1cc(N2CCOCC2)ncn1` [Molidustat (BAY 85-3934)], the nucleus roundness z-score was -0.66.
`O=C(NOC[C@H](O)CO)c1ccc(F)c(F)c1Nc1ccc(I)cc1F` gave a nucleus roundness z-score of 0.543.
`Brc1ccc([C@H]2CN3CCSC3=N2)cc1` [(-)-p-Bromotetramisole Oxalate] showed a nucleus roundness z-score of 0.0172.
Compound `Cc1cc(C)nc(NS(=O)(=O)c2ccc(N)cc2)n1` [Sulfamethazine] has a nucleus roundness z-score of 0.236.
With `CCNC(=O)[C@H]1O[C@@H](n2cnc3c(N)nc(NCCc4ccc(CCC(=O)O)cc4)nc32)[C@H](O)[C@@H]1O` the nucleus roundness z-score was 0.116.
In the case of `COC1=C2C[C@@H](C)C[C@H](OC)[C@H](O)[C@@H](C)/C=C(\C)[C@H](OC(N)=O)[C@@H](OC)/C=C\C=C(/C)C(=O)NC(=CC1=O)C2=O` [Geldanamycin], the nucleus roundness z-score is reported as -1.19.
With `CN1CCN(C(c2ccccc2)c2ccccc2)CC1` [Cyclizine 2HCl] the nucleus roundness z-score was -0.0836.
In the case of `CCN1CCC[C@H]1CNC(=O)c1cc(S(N)(=O)=O)ccc1OC` [Levosulpiride], the nucleus roundness z-score is reported as 1.16.
`CS(=O)(=O)c1ccc(C2=C(c3ccccc3)C(=O)OC2)cc1` [Rofecoxib] gave a nucleus roundness z-score of 0.994.
`O=C1Nc2ccc(Cl)cc2[C@@](C#CC2CC2)(C(F)(F)F)O1` [Efavirenz] gave a nucleus roundness z-score of 0.0299.
`CC(=O)O[C@]1(C(C)=O)CC[C@H]2[C@@H]3C=C(Cl)C4=CC(=O)[C@@H]5C[C@@H]5[C@]4(C)[C@H]3CC[C@@]21C` [Cyproterone Acetate] showed a nucleus roundness z-score of -2.16.
